# Test results: the supplement of paper PMC12067093, “Discovery and optimisation of a covalent ligand for TRIM25 and its application to targeted protein ubiquitination” (Chemical Science, 2025)
# Chains of the proteins cited; added tags and fusions are not shown. Lines headed by an entry give the natural chain unless they say otherwise; changes in a name come on top.
# UniProt P62937, whole entry, looked up: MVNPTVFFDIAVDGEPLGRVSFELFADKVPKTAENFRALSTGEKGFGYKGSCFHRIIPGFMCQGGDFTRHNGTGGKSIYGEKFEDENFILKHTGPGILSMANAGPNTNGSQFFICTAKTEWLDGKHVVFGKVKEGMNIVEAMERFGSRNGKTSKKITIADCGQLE
# UniProt P09884: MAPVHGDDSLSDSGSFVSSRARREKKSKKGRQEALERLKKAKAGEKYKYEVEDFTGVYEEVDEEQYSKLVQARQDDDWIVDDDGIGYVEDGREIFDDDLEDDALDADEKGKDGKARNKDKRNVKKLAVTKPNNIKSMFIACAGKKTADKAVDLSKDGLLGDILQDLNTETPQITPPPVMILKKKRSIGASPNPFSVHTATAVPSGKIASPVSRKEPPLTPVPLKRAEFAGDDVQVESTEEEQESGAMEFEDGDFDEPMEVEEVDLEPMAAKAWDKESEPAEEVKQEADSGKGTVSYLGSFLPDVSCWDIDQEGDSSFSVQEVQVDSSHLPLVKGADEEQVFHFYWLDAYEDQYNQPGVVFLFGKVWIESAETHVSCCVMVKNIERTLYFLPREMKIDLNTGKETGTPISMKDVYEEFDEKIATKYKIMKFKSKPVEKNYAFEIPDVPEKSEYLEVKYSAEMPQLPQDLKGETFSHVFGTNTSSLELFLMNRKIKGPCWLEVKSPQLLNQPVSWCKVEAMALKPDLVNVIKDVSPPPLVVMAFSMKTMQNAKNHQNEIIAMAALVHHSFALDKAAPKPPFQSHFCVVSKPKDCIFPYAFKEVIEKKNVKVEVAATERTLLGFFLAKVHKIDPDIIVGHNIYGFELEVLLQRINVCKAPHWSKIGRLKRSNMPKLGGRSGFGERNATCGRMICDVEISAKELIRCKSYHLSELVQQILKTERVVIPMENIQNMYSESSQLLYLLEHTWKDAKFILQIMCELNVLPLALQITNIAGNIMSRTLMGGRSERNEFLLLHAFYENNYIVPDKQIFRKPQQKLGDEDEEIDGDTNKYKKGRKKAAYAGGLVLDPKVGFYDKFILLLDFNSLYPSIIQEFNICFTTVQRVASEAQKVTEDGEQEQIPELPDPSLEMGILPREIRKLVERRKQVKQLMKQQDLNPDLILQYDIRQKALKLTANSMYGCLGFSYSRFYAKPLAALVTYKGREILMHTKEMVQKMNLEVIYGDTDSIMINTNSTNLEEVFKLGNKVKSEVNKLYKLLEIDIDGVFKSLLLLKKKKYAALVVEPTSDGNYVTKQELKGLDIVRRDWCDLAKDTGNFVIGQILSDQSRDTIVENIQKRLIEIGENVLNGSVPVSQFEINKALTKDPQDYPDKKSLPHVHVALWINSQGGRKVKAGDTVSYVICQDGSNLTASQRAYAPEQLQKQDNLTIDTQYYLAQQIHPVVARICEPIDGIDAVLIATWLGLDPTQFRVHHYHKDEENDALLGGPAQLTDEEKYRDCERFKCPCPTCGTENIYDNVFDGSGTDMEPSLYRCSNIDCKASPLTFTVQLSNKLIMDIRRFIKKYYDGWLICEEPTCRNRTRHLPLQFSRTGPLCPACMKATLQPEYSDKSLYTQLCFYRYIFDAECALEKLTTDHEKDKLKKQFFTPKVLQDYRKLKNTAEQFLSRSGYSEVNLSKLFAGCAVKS
# UniProt P28340: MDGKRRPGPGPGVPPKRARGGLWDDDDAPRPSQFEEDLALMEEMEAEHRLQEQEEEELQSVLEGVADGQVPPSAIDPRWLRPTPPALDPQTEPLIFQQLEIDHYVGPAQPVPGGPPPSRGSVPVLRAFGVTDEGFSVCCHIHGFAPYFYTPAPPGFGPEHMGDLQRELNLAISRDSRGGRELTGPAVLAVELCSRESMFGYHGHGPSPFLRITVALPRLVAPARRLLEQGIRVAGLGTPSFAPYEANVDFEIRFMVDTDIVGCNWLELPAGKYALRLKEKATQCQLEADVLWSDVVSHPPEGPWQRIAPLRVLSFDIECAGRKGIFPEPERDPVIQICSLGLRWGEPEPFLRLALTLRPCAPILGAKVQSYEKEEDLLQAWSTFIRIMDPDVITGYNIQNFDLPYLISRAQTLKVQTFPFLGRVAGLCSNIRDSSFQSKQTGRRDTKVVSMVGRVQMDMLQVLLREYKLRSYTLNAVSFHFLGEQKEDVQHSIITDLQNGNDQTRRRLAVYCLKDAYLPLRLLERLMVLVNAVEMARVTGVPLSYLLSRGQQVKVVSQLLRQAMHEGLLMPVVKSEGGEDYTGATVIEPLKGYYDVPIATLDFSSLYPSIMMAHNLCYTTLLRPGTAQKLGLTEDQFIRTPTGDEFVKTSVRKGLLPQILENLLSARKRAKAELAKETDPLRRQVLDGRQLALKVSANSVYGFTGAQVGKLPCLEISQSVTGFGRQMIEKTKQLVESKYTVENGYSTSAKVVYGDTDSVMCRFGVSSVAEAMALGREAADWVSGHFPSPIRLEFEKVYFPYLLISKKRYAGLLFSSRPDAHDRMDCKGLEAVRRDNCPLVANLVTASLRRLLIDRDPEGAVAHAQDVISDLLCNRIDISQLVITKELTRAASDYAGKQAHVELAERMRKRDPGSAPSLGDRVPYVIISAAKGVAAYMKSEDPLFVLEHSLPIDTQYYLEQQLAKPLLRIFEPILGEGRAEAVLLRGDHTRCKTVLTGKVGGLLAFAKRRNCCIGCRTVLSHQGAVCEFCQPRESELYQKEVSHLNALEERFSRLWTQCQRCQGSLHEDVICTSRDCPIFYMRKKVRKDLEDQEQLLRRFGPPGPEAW
# UniProt Q99575: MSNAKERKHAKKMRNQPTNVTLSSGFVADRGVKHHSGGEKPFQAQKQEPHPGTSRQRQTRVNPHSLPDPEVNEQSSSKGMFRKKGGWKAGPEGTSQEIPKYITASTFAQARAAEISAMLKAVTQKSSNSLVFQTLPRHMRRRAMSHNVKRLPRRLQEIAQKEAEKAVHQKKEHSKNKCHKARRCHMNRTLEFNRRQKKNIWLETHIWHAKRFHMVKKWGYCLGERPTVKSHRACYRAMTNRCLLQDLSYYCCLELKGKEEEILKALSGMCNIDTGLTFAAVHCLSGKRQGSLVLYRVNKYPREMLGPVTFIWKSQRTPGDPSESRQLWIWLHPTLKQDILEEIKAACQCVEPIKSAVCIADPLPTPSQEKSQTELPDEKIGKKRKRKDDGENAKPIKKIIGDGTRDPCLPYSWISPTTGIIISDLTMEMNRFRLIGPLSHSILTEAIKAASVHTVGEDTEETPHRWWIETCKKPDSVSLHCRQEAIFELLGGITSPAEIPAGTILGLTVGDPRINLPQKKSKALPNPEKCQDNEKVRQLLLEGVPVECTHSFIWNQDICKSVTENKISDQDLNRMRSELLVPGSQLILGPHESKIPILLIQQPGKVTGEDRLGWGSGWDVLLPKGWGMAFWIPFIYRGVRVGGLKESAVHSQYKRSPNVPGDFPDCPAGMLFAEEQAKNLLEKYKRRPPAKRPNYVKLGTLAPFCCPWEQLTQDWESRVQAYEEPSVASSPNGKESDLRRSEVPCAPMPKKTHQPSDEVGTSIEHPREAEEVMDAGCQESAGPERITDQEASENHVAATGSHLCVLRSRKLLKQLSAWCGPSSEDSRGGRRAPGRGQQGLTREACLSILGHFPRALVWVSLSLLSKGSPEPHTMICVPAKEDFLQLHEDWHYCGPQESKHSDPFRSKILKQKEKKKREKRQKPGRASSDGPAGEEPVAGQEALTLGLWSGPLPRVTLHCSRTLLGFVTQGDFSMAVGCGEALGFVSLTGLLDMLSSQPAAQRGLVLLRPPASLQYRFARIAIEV
# UniProt Q7Z3K3: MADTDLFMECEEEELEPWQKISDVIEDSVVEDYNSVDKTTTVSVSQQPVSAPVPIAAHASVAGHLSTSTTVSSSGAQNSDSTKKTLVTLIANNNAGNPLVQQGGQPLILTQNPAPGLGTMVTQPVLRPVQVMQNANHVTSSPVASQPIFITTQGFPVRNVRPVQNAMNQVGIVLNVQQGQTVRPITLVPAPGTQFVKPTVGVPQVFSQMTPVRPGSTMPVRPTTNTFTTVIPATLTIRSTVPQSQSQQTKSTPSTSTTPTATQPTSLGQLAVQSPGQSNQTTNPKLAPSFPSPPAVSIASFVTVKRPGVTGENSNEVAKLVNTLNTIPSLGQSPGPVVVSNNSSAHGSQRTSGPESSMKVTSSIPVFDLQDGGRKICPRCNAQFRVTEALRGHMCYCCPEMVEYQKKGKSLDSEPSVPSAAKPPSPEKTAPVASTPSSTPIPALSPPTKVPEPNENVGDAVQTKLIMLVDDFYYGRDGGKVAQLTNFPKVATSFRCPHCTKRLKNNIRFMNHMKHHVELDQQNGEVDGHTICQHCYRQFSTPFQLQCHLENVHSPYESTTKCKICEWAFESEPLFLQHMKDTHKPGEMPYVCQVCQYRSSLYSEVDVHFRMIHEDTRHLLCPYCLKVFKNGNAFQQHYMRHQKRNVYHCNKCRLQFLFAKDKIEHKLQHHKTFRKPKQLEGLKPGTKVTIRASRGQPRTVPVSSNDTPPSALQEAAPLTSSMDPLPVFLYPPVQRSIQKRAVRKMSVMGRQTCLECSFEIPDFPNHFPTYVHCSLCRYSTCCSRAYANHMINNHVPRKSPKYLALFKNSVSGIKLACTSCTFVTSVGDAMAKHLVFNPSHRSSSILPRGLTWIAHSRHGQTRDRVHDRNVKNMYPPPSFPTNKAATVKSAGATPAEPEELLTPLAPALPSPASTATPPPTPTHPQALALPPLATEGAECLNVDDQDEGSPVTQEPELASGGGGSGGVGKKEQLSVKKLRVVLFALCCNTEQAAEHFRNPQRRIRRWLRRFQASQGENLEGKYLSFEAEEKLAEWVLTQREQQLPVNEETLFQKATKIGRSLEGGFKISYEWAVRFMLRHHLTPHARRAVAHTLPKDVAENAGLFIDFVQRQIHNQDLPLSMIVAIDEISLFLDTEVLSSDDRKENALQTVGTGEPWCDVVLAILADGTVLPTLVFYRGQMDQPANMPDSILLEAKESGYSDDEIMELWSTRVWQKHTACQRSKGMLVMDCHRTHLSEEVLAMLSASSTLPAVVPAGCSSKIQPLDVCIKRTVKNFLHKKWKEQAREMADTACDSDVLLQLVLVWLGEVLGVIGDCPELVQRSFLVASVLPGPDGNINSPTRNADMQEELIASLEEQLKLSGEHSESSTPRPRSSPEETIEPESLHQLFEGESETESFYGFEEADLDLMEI
# UniProt Q9P215: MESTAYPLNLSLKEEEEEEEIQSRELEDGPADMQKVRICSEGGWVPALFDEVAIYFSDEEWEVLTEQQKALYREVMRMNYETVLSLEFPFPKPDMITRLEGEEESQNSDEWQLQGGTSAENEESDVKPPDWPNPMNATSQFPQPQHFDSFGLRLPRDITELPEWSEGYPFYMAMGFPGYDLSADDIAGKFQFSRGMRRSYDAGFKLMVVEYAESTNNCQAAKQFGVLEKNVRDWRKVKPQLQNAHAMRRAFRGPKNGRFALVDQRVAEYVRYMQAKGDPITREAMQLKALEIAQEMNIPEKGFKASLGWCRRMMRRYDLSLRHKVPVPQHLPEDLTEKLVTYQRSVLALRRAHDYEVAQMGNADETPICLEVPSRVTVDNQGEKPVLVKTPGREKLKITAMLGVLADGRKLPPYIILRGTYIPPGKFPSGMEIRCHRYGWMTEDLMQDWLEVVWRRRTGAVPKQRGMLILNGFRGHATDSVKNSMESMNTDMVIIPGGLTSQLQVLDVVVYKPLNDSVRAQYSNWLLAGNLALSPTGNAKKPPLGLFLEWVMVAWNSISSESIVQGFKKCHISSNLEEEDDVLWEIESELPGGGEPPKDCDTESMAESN
# UniProt Q8WZA1: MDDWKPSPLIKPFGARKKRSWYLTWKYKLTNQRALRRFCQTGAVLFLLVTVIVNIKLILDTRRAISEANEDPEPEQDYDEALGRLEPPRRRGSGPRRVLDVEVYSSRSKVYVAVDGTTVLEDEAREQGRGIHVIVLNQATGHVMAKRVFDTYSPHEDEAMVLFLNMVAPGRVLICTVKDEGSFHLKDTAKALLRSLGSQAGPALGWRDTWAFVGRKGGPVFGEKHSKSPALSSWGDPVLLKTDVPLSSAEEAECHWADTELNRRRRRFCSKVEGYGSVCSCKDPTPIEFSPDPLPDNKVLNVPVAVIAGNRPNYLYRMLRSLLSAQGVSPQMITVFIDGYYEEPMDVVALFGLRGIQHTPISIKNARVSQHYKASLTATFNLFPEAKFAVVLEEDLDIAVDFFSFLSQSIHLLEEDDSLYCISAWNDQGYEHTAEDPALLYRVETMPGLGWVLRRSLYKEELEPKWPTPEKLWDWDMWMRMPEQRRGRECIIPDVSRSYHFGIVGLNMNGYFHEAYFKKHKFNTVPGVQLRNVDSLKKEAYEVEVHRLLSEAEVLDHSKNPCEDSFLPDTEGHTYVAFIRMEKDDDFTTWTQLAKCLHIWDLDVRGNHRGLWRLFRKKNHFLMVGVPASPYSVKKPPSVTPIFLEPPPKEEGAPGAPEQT
# Some of the results follow.
# Compound: CC1Cc2ccccc2N1C(=O)C1CCCN(C1)C(=O)CCl (mixture of isomers) [TRIM25 ligand 11 (diastereomer mixture)]
# Assay: probe-labelled cysteine peptide fold change vs DMSO (competition) (log2 fold change); higher = less target engagement (more negative = stronger competition)
# Conditions: THP-1, incubation time: 4 h
# 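Also: competitive chemoproteomic profiling in live THP-1 cells with an iodoacetamide desthiobiotin (IA-DTB) probe, comparing probe-labelled peptide intensities in compound-treated cells against DMSO-treated controls.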
Target,probe-labelled cysteine peptide fold change (10 µM),probe-labelled cysteine peptide fold change (50 µM)
POLR1A_O95602_1304_IDVQESFCMEEK (UniProt O95602),0.122,-0.356
POR_P16435_472_VHPNSVHICAVVVEYETK (UniProt P16435),0.0977,0.00764
POLD2_P49005_92_CCVVGTLFK (UniProt P49005),0.0834,0.165
PPIA_P62937_161_KITIADCGQLE (UniProt P62937),-0.0916,-0.147
POLA1_P09884_497_GPCWLEVK (UniProt P09884),-0.00228,0.056
POLE_Q07864_2148_LVDVGEFSEEAQFRDPCR (UniProt Q07864),0.0487,-0.0191
POLR1A_O95602_1289_VCLGEVLQK (UniProt O95602),0.0326,0.146
PPIE_Q9UNP9_176_CLCTHEK (UniProt Q9UNP9),-0.0295,0.072
POTEF_A5A3E0_917_LCYVALDFEQEMATVASSSSLEK (UniProt A5A3E0),0.271,-0.0879
POLD1_P28340_837_DNCPLVANLVTASLRR (UniProt P28340),-0.49,-0.14
POLA1_P09884_584_AAPKPPFQSHFCVVSKPK (UniProt P09884),-0.23,-0.194
POP1_Q99575_745_RSEVPCAPMPK (UniProt Q99575),-0.0871,-0.298
POLB_P06746_239_FMGVCQLPSK (UniProt P06746),-0.0305,-0.104
PPAT_Q06203_207_DPYGNRPLCIGR (UniProt Q06203),0.114,0.222
POM121C_A8CG34_245_MVCSPVTVR (UniProt A8CG34),-0.224,-0.1
POLRMT_O00411_705_TVEGATQHQELLETCPPTALHGALDALTQLGNCAWR (UniProt O00411),0.048,-0.00621
POP1_Q99575_221_WGYCLGERPTVK (UniProt Q99575),0.063,0.0756
PPIA_P62937-2_2_CQGGDFTR (UniProt P62937),0.165,0.13
PPA2_Q9H2U2_44_GQPCSQNYR (UniProt Q9H2U2),-0.00102,0.0357
POGZ_Q7Z3K3_1219_HTACQR (UniProt Q7Z3K3),-0.0142,0.0316
POGK_Q9P215_369_RAHDYEVAQMGNADETPICLEVPSR (UniProt Q9P215),0.0758,-0.142

# For convenience, some entries already given:
Target,probe-labelled cysteine peptide fold change (10 µM),probe-labelled cysteine peptide fold change (50 µM)
POGZ_Q7Z3K3_1219_HTACQR (UniProt Q7Z3K3),-0.0142,0.0316
POGK_Q9P215_369_RAHDYEVAQMGNADETPICLEVPSR (UniProt Q9P215),0.0758,-0.142

# (next part)

Target,probe-labelled cysteine peptide fold change (10 µM),probe-labelled cysteine peptide fold change (50 µM)
PNP_P00491_206_ELQEGTYVMVAGPSFETVAECR (UniProt P00491),0.0672,-0.037
PPA1_Q15181_254_CDPDAAR (UniProt Q15181),-0.0372,-0.204
POLG2_Q9UHN1_73_SHAELEGNGEHPEAPGSGEGSEALLEICQR (UniProt Q9UHN1),0.242,-0.158
PPID_Q08752_275+282_LQPIALSCVLNIGACK (UniProt Q08752),0.246,0.38
POLK_Q9UBT6_161_RLCPQLIIVPPNFDK (UniProt Q9UBT6),-0.118,0.048
POP1_Q99575_876_GSPEPHTMICVPAK (UniProt Q99575),0.0403,-0.121
POLD1_P28340_837_RDNCPLVANLVTASLR (UniProt P28340),-0.00474,-0.0689
POLR2M_P0CAP2_65_AAIAECEEVRR (UniProt P0CAP2),-0.0353,0.148
POLR1B_Q9H9Y6_1070_SVAHVCVK (UniProt Q9H9Y6),0.102,-0.0166
POLR2B_P30876_892_DCSTFLR (UniProt P30876),-0.0307,-0.0887
POMGNT1_Q8WZA1_254_TDVPLSSAEEAECHWADTELNRR (UniProt Q8WZA1),0.0477,0.0735
POLR2B_P30876_622_ICRPLLIVEK (UniProt P30876),-0.0338,-0.0492
POLR2I_P36954_86_TEDHPCQK (UniProt P36954),-0.131,-0.203
POT1_Q9NUX5_329_CQQLSATILTDHQYLER (UniProt Q9NUX5),0.294,-0.0091
PPID_Q08752_282_LQPIALSCVLNIGACK (UniProt Q08752),-0.05,0.184
PPFIBP2_Q8ND30_145_DLEVCLEGHQVK (UniProt Q8ND30),0.0904,0.0923
PNP_P00491_31_HRPQVAIICGSGLGGLTDK (UniProt P00491),0.00797,0.0271
POLG_P54098_760_DGNSCNVGSPFAK (UniProt P54098),-0.102,-0.015
POLR2B_P30876_221_YAYTGECR (UniProt P30876),0.0492,0.019
POMGNT1_Q8WZA1_254_TDVPLSSAEEAECHWADTELNR (UniProt Q8WZA1),-0.234,-0.213
POLR2E_P19388_21_TIMQLCHDR (UniProt P19388),0.109,0.194
